A short description of the data set: Thermo Scientific Acclaim RSLC 120 C18, 100 × 2.1 mm, 2.2 µm, 30 °C; A: 90% water + 10% methanol + 0.01% formic acid + 5 mM ammonium formate; B: methanol + 0.01% formic acid + 5 mM ammonium formate; gradient (min/%B) 0.1/1 3/39 14/99.9 16/99.9. The following applies: stereoisomer not certain.

Each structure is given as a SMILES string.

For the molecule `O=C(c1ccccc1)c1ccccc1`, the LC retention time was 10.8 min.
